# Measurements reported in PubChem BioAssay AID1259290 (Sanger Institute, 2017).
# Test: 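Identify kinases needed for colorectal cancer cell survival, with or without anchor drugs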 (primary screen)
# System: human SNUC1 colorectal cancer cells
# Reagents: siRNA pool against human genes
# Conditions: anchor drugs BYL719 1 µM, cetuximab 5 µg/ml or trametinib 10 nM, or DMSO vehicle alone
# Measurement: 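Viability averaged over replicates and scaled to non-targeting siRNA, robust z-score with no drug, and synergy scores by drug for BYL719, cetuximab and trametinib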
# Reading the numbers: viability z-score, siRNA alone: higher = more viable cells; low values mean essential gene; viability vs control, siRNA alone: higher = more viable cells; synergy score with BYL719 and synergy score with Cetuximab and synergy score with Trametinib: higher = stronger synthetic lethal effect with drug
# Hit rule: 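a knock-down without drug scoring a robust z under -3 counts as essential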
# Meaning of the calls: active = essential: knock-down alone cut viability (z below -3); inactive = no clear viability loss with knock-down alone
# Shown is a random part of 794 reagents tested. 9 of them (1.1%) were called active. 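Calls rest on knock-down alone, not drug synergy; synergy above 0.15 was grouped apart and does not affect calls.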 Entries without a mark were called inactive. No viability above 1 is reported: the scale is capped. No sequences are given here. Not stated in the record: the amount of reagent, the time to read-out.
Gene,"viability z-score, siRNA alone","viability vs control, siRNA alone",synergy score with BYL719,synergy score with Cetuximab,synergy score with Trametinib
WT1,-0.473,0.873,-0.0754,0.139,-0.154
CKM,-0.355,0.884,0.0833,-0.0247,-0.0801
KHK,-0.774,0.846,-0.101,-0.00296,-0.0192
APC,-0.407,0.879,-0.149,-0.0638,0.00916
CDK2,0.936,1,-0.198,-0.0447,0.0818
CDKL4,0.727,0.981,-0.213,0.00447,0.13
MOK,-1.47,0.784,-0.218,-0.0052,-0.15
NUP107,-2.81,0.663,-0.101,0.0412,-0.0767
MOS,0.936,1,0.0397,0.0299,0.0963
INSR,0.139,0.928,0.00538,0.0327,0.0579
MAK,-2.34,0.705,-0.256,-0.299,-0.0559
NME4,-0.232,0.895,-0.163,-0.0494,-0.083
ULK1,0.936,1,-0.121,0.0918,0.0874
CAMK1G,-1.68,0.765,-0.176,0.0211,-0.0191
ERN1,0.936,1,-0.0287,0.0491,-0.0345
PRKCZ,0.215,0.935,0.0271,-0.0333,0.0733
FXN,0.936,1,-0.0239,-0.0447,0.0897
LMTK1,-0.965,0.829,-0.0574,0.104,0.028
CALM3,0.153,0.929,-0.0607,-0.0451,-0.0566
PKIA,0.936,1,-0.117,-0.0447,-0.0221
DLG3,-1.2,0.807,-0.148,-0.0254,0.07
MAP3K11,0.926,0.999,-0.185,0.086,0.0537
ERN2,0.936,1,-0.198,-0.0447,-0.111
CAMK2G,0.936,1,-0.103,-0.0337,-0.0959
CDC42BPB,-0.341,0.885,-0.29,-0.0503,-0.195
CDK16,0.936,1,0.15,0.0489,0.201
CLSPN,0.936,1,-0.148,-0.0447,-0.0363
CAMK1,0.936,1,-0.165,-0.0447,-0.0715
PINK1,0.533,0.964,-0.154,-0.0794,0.155
PIK3C2B,0.27,0.94,-0.184,0.0344,-0.0572
FXR1,-0.0405,0.912,-0.218,-0.091,-0.0383

The list goes on (7 carried over from the part before).
Gene,"viability z-score, siRNA alone","viability vs control, siRNA alone",synergy score with BYL719,synergy score with Cetuximab,synergy score with Trametinib
CDC42BPB,-0.341,0.885,-0.29,-0.0503,-0.195
CDK16,0.936,1,0.15,0.0489,0.201
CLSPN,0.936,1,-0.148,-0.0447,-0.0363
CAMK1,0.936,1,-0.165,-0.0447,-0.0715
PINK1,0.533,0.964,-0.154,-0.0794,0.155
PIK3C2B,0.27,0.94,-0.184,0.0344,-0.0572
FXR1,-0.0405,0.912,-0.218,-0.091,-0.0383
PHKA1,0.936,1,-0.198,-0.0447,0.0437
PRKCD,0.109,0.925,0.142,0.00363,0.101
LRRK2,0.706,0.979,-0.111,-0.0447,0.0123
PIK3R5,0.113,0.926,-0.0483,0.068,-0.135
CDK9,-0.197,0.898,-0.0424,-0.0278,0.0509
TSKS,0.936,1,-0.198,-0.0447,-0.085
NEK2,0.936,1,-0.0124,0.0126,0.165
STRADB,0.936,1,-0.198,-0.0255,-0.0551
NAGK,0.936,1,-0.198,-0.0447,0.0142
ITPK1,0.545,0.965,-0.0181,-0.0213,0.0864
BRDT,0.936,1,0.0366,-0.0259,0.0789
ROS1,-0.519,0.869,-0.141,0.0459,-0.132
NME7,0.267,0.94,0.0456,0.045,0.0985
CSNK2B,-0.736,0.849,-0.154,0.033,-0.0293
CHUK,0.936,1,-0.126,0.0958,-0.117
TP53RK,-0.244,0.894,-0.203,0.0089,-0.016
CDK7,0.819,0.989,-0.207,-0.0548,0.0809
STK36,-1.24,0.804,-0.33,-0.232,-0.139
N4BP2,-0.354,0.884,-0.201,0.0777,0.0147
